# The other results are listed elsewhere or left out. The main result of the screen is listed elsewhere. These columns were measured beside it and carry no call. Most of these compounds were active or inconclusive in the main read-out, so they are no random draw. Potencies come from curve fits of mixed quality, noted in brackets.
# Experiment: qHTS Assay for Lipid Storage Modulators in Drosophila S3 Cells;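 as to cell number change: cells counted by Cell Tracker Red CMTPX staining in the red channel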
# Conditions: BODIPY lipid droplet fluorescence, 18-24 h; for cell number change: measured here: cell count max response, cells fed with added oleic acid
# Procedure, shortened: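 Laser-scanning cytometry quantifies lipid droplet accumulation (500–530 nm total intensity; droplet/cell object ratio) in oleic acid-fed (400 uM added) Drosophila S3 cells treated with a concentration series. 20 uM Triacsin C defined 100% inhibition.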
# [1] = measured here: lipid fluorescence (Fed channel) AC50, cells fed with added oleic acid
# [2] = measured here: cell number channel AC50, cells fed with added oleic acid
SMILES,cell number change [%],AC50 [1],AC50 [2]
O=C(C1CCC1)N1CCc2cc(S(=O)(=O)NCc3ccccn3)ccc21,2.17,"0.116 µM [rising, full curve]",–
Cc1ccc2nc(C)cc(C(=O)Nc3nccs3)c2c1,–,"0.0731 µM [rising, partial curve, poor fit]",–
O=S(=O)(NC1=NCCCCC1)c1ccc(Cl)cc1,-20.6,"0.58 µM [rising, single point]",–
COc1ccccc1N1CCN(S(=O)(=O)CCNC(=O)c2ccc(OC(C)C)cc2)CC1,7.26,–,–
COc1ccc(C(=O)Nc2ccccc2C(=O)NC(Cc2ccc(O)cc2)C(=O)NNC(=O)c2ccccc2)cc1 (centres undefined),8,–,–
CCN(CC)S(=O)(=O)c1ccc(O)c(C(=O)OCC(=O)N(C)Cc2ccccc2)c1,-5.56,–,–
O=C(Cc1ccc(Cl)c(Cl)c1)Nc1cccc(S(=O)(=O)N2CCOCC2)c1,25.5,–,–
Cc1c(C)c2cc(Cl)c(O)c(CN3CCCC(C)C3)c2oc1=O (centres undefined),148,–,"11.6 µM [rising, partial curve]"
COc1cc(/C=C2\SC(=S)N(NC(=O)c3cccnc3)C2=O)ccc1O,-97.1,"2.91 µM [falling, partial curve, poor fit]","29.1 µM [falling, single point]"
Nc1ccc(-c2nnc(-c3ccccc3)o2)cc1,–,"7.31 µM [falling, partial curve, poor fit]",–
COc1ccccc1C1=NN(C(=S)Nc2ccccc2)C(c2ccco2)C1 (centres undefined),20.5,"0.517 µM [rising, single point]",–
O=C(Cc1cccs1)N/N=C/c1ccc(OCc2ccccc2)cc1,-22,"32.6 µM [falling, single point]",–
CCOc1ccccc1NC(=O)c1c(Br)cnn1C,66.7,–,"29.1 µM [rising, single point]"
Cc1[nH]c2ccc3ncccc3c2c1C,58.7,"2.59 µM [rising, single point]","2.91 µM [rising, full curve]"
O=c1c2ccccc2ncn1Cc1ccc2c(c1)OCO2,-2.91,"5.8 µM [rising, partial curve]",–
O=C(Nc1ccccc1)Nc1snnc1C(=O)Nc1cccc(O)c1,-31.5,"7.31 µM [falling, partial curve]","9.2 µM [falling, partial curve, poor fit]"
Cc1ccccc1-n1cc(CNCc2c(C(=O)N(C)C)nc3ccc(Cl)cn23)cn1,13.6,–,–
CCCn1c(=O)c2c(C(F)(F)F)cc(-c3cccs3)nc2n(CCC)c1=O,–,"0.00461 µM [rising, full curve, poor fit]",–
CCN(CC)S(=O)(=O)c1ccc2c(c1)c(=O)c(C(=O)NCc1cccs1)cn2C,4.89,"0.517 µM [rising, single point]",–
COc1ccc(-n2nnnc2/C(=C/N(C)C)C(=O)c2ccccc2)cc1,20.1,–,–
Cc1ccc(NS(=O)(=O)c2cc(NC(=O)c3cc4c(s3)CCCC4)ccc2C)c(C)c1,-1.44,–,–

# Three entries picked at random from the list so far:
SMILES,cell number change [%],AC50 [1],AC50 [2]
O=S(=O)(NC1=NCCCCC1)c1ccc(Cl)cc1,-20.6,"0.58 µM [rising, single point]",–
O=c1c2ccccc2ncn1Cc1ccc2c(c1)OCO2,-2.91,"5.8 µM [rising, partial curve]",–
Cc1[nH]c2ccc3ncccc3c2c1C,58.7,"2.59 µM [rising, single point]","2.91 µM [rising, full curve]"

# More records:

SMILES,cell number change [%],AC50 [1],AC50 [2]
CCOC(=O)c1cccc2c1-c1ccccc1/C2=N/O,-29.4,"0.13 µM [falling, full curve, poor fit]",–
Cc1cc(N)n(-c2nc(-c3cccnc3)nc3ccccc23)n1,-8.9,"2.59 µM [falling, single point]",–
CCS(=O)(=O)C(=C1NCCO1)S(=O)(=O)CC,-31.2,"3.66 µM [falling, full curve]","0.731 µM [falling, full curve]"
CC(C)(C)OC(=O)N1CCC[C@H]1c1nnc(SCc2c(F)cccc2Cl)o1,-2.18,"29.1 µM [rising, single point]",–
COc1ccccc1NS(=O)(=O)c1cccc(N=C2N=C(N)c3ccccc32)c1,-9.15,"0.146 µM [rising, full curve, poor fit]","6.51 µM [rising, single point]"
CCC(=O)Nc1nnc(SCC(=O)NC2CCCC2)s1,-6.58,"1.12 µM [rising, partial curve]",–
Cc1noc(C)c1C(=O)OCC(=O)Nc1c(F)cccc1F,-22.6,–,–
O=C1c2ccccc2C(=O)N1CC1=NCCc2ccccc21,-13.4,"8.2 µM [rising, partial curve]",–
NC(=O)CC(NC(=O)c1ccccc1)c1ccc(N2CCCCCC2)c([N+](=O)[O-])c1 (centres undefined),1.8,"0.517 µM [falling, single point]",–
O=C(Nc1cccc2ccccc12)/C(=C/c1ccc([N+](=O)[O-])cc1)NC(=O)c1ccccc1,-6.03,"4.61 µM [rising, single point]",–
O=S(=O)(Nc1ccc(N2CCOCC2)cc1)c1ccc2ccccc2c1,-93.5,"0.82 µM [falling, partial curve]","0.146 µM [falling, full curve, poor fit]"
COc1ccc(C(C)NC(=O)C23CC4CC(CC(C4)C2)C3)cc1OC (centres undefined),-1.09,–,–
CC1Cc2ccccc2N1C(=O)CSc1nc2c(c(=O)n(C)c(=O)n2C)n1Cc1ccccc1 (centres undefined),–,"2.31 µM [rising, full curve]","0.058 µM [rising, partial curve]"
O=C(CS(=O)c1ccc(C(F)(F)F)cc1[N+](=O)[O-])Oc1ccc(Cl)cc1 (centres undefined),-26.6,–,–
Cc1ccc(C(=O)OCC(=O)NCc2ccc(F)cc2)o1,-13.9,"29.1 µM [falling, single point]",–
Cc1ccc(CNC(=O)CN(C(=O)N2CCN(C)CC2)S(=O)(=O)c2ccc(C)cc2)cc1,-75,–,"1.64 µM [falling, partial curve]"
COc1ccc(S(=O)(=O)N(NC2=NS(=O)(=O)c3ccccc32)C(=O)C(C)C)cc1,–,–,"0.00461 µM [falling, full curve, poor fit]"
COc1ccc(C(=O)NNC(=O)Cc2ccc(-c3ccccc3)cc2)cc1OC,17.3,–,–
N#Cc1ccsc1NC(=O)C1CCCN1S(=O)(=O)c1cccs1 (centres undefined),-69.1,–,"29.1 µM [falling, single point]"
CN(C)c1nc(Cl)nc(N(C#N)CCOc2ccccc2)n1,23,"4.61 µM [rising, full curve, poor fit]","2.59 µM [rising, full curve, poor fit]"
CCn1cc(-c2ccccc2)c(C(=O)O)c1-c1ccc(OC)cc1,-11,"0.461 µM [falling, partial curve, poor fit]",–

SMILES,cell number change [%],AC50 [1],AC50 [2]
Cc1cc(C)n2nc(/C(C#N)=C/c3ccccn3)c(C#N)c2n1,10.7,"6.51 µM [rising, single point]","6.51 µM [rising, single point]"
O=C(CCCn1c(=S)[nH]c2ccccc2c1=O)N1CCN(c2cccc(Cl)c2)CC1,10.8,"32.6 µM [falling, single point]",–
CCc1cccc(NC(=S)Nc2cccc3ccccc23)c1,48.9,"18.4 µM [rising, single point]","16.4 µM [rising, partial curve, poor fit]"
CC(=O)Nc1ccc(NC(=O)CCSCCc2ccccn2)cc1,-36.9,–,–
COc1ccc(NC(=O)Cn2c(=O)n(CC3CCCO3)c(=O)c3cc(OC)c(OC)cc32)cc1OC (centres undefined),16.8,"29.1 µM [rising, single point]",–
CNS(=O)(=O)c1cc(O)c2c(S(=O)(=O)NC)cccc2c1,4.74,"18.4 µM [falling, partial curve]",–
O=C(NCc1cccnc1)c1ccc(COc2ccccc2Br)o1,–,"4.11 µM [rising, partial curve]",–
N#Cc1ccc(COC(=O)c2cnc3ccccc3n2)cc1,–,"29.1 µM [rising, single point]",–
Cn1ccnc1SCC(=O)NC1(C#N)CCCCC1,0.5,–,–
Cc1ccc(N2C(=O)c3cccc4c(Oc5ccccc5[N+](=O)[O-])ccc(c34)C2=O)c(C)c1,-28.6,"18.4 µM [rising, single point]",–
COC(=O)c1c(-c2ccc(Br)cc2)csc1NC(=O)Cc1ccc(OC)c(OC)c1,-14.6,"4.61 µM [rising, partial curve]",–
O=C(c1ccccc1)N1CCN(C(=S)NCc2ccc3c(c2)OCO3)CC1,19.7,"0.259 µM [rising, full curve, poor fit]",–
O=C(NCc1ccccc1)C(Cc1ccccc1)NS(=O)(=O)c1cccc2nsnc12 (centres undefined),–,"0.103 µM [rising, full curve, poor fit]",–
O=C(Nc1ccc(Oc2ccc(NC(=O)C3CCCO3)cc2)cc1)C1CCCO1 (centres undefined),4.33,–,–
Cc1ccsc1C(=O)NCCc1c[nH]c2ccccc12,19.9,"1.3 µM [rising, partial curve, poor fit]",–
Cc1ccc(C(=O)Nc2cccc(Oc3ccccc3)c2)o1,127,"2.91 µM [rising, full curve]","5.17 µM [rising, partial curve]"
O=C(NC(=O)N1CCCCC1)c1ccc(Cl)cc1,14.4,"18.4 µM [rising, single point]",–
Cc1csc(NC(=O)CSc2ncn(-c3ccccc3)n2)n1,-21,"23.1 µM [falling, single point]",–
Nc1c(C(=O)N/N=C/c2cccnc2)oc2nc(-c3ccco3)cc(-c3ccco3)c12,14.2,"0.651 µM [rising, full curve]",–
Cc1nc(/C(N)=N/OC(=O)Cc2ccccc2)no1,48.4,"20.6 µM [rising, single point]","14.6 µM [rising, single point]"
